Results: article PMC11982335
No constants are given. Whether binding was seen depends on the method and setting. Binding seen in cells or lysates may run through a third protein. A yes stands for co-enrichment or nearness to the bait. Other partners may have been found.

Chains of the proteins cited; added tags and fusions are not shown.
UniProt Q9NRL2: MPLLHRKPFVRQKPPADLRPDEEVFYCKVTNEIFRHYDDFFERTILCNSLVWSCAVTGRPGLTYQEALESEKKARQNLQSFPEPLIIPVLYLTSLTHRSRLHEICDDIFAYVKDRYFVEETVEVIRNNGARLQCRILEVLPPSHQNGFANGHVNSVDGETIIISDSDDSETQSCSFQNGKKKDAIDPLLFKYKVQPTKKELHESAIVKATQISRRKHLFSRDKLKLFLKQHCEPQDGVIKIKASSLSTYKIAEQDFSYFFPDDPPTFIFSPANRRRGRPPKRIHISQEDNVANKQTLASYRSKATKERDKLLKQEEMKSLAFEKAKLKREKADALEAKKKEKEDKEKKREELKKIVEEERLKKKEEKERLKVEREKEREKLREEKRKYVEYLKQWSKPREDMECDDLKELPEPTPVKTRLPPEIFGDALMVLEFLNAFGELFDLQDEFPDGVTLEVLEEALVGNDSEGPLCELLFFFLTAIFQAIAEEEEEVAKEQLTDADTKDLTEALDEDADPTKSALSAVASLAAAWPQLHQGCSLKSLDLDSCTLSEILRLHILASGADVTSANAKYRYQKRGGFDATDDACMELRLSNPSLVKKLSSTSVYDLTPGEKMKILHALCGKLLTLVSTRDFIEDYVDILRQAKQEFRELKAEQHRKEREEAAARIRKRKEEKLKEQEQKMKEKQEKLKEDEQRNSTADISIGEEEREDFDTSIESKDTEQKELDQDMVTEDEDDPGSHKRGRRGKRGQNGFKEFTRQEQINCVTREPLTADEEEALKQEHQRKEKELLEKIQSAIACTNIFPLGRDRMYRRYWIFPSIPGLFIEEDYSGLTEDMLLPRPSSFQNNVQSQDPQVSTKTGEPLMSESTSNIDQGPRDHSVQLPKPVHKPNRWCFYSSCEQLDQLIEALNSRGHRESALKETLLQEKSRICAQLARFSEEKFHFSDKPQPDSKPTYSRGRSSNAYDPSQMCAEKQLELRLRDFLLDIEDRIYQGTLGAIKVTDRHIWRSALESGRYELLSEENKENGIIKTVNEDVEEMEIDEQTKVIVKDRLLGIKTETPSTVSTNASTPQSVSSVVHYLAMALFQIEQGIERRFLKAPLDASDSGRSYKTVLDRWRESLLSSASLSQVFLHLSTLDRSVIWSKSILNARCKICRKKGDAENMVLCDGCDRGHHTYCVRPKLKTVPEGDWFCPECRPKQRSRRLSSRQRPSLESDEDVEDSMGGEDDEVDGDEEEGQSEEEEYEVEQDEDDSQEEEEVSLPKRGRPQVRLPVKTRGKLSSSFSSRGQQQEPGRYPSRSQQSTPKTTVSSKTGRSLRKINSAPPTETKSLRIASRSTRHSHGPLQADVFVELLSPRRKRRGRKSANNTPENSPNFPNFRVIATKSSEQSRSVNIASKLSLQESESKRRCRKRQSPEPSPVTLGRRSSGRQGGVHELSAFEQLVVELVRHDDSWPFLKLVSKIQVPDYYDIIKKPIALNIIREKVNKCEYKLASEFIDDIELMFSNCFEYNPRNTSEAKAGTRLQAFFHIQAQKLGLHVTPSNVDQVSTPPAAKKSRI
UniProt Q9UBN7: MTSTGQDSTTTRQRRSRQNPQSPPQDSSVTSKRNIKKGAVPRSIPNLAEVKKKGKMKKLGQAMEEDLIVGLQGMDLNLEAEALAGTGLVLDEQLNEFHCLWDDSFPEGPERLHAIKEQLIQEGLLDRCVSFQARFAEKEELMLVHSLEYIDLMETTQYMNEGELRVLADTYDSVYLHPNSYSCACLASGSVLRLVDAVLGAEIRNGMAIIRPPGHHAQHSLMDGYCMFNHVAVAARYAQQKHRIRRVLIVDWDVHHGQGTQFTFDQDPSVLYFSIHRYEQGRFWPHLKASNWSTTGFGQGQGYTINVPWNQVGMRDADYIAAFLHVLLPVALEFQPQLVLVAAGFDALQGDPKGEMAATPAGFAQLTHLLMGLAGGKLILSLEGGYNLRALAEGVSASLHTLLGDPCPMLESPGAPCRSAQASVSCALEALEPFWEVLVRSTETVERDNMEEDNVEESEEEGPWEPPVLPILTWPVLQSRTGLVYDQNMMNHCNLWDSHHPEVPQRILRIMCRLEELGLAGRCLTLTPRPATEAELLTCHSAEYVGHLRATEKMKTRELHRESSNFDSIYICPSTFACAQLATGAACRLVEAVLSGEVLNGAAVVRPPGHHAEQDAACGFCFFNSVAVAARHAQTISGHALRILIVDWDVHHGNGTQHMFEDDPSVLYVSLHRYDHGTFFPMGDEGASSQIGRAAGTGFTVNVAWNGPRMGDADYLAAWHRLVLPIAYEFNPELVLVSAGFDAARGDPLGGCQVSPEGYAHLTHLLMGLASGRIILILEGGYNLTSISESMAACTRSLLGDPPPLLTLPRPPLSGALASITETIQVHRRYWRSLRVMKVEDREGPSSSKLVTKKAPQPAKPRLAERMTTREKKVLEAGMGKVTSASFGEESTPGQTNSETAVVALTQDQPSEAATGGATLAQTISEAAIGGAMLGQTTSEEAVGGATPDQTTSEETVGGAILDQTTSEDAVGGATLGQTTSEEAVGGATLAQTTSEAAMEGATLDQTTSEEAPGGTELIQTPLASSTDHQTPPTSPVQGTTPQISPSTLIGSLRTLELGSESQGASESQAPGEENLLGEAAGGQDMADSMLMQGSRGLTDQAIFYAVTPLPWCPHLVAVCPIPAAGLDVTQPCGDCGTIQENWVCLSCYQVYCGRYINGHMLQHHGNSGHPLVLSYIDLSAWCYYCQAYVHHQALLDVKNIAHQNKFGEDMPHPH

The molecules below were run against Flag- and HA-tagged USP10 (ubiquitin-specific peptidase 10) (human) (UniProt Q14694) (assay: affinity purification with mass spectrometry; Flag- and HA-tagged USP10 enriched with anti-DYKDDDDK beads and anti-HA beads; SDS-PAGE, protein bands analysed by LC-MS/MS; compared to an IgG group).

Row | Molecule | binding
1 | BAZ1A (bromodomain adjacent to zinc finger domain, 1A), endogenous (from UniProt Q9NRL2 1-1556) | binds
2 | HDAC6 (from UniProt Q9UBN7 1-1215) | binds
3 | DDX1 (protein, UniProt Q92499 1-740) MAAFSEMGVMPEIAQAVEEMDWLLPTDIQAESIPLILGGGDVLMAAETGSGKTGAFSIPVIQIVYETLKDQQEGKKGKTTIKTGASVLNKWQMNPYDRGSAFAIGSDGLCCQSREVKEWHGCRATKGLMKGKHYYEVSCHDQGLCRVGWSTMQASLDLGTDKFGFGFGGTGKKSHNKQFDNYGEEFTMHDTIGCYLDIDKGHVKFSKNGKDLGLAFEIPPHMKNQALFPACVLKNAELKFNFGEEEFKFPPKDGFVALSKAPDGYIVKSQHSGNAQVTQTKFLPNAPKALIVEPSRELAEQTLNNIKQFKKYIDNPKLRELLIIGGVAARDQLSVLENGVDIVVGTPGRLDDLVSTGKLNLSQVRFLVLDEADGLLSQGYSDFINRMHNQIPQVTSDGKRLQVIVCSATLHSFDVKKLSEKIMHFPTWVDLKGEDSVPDTVHHVVVPVNPKTDRLWERLGKSHIRTDDVHAKDNTRPGANSPEMWSEAIKILKGEYAVRAIKEHKMDQAIIFCRTKIDCDNLEQYFIQQGGGPDKKGHQFSCVCLHGDRKPHERKQNLERFKKGDVRFLICTDVAARGIDIHGVPYVINVTLPDEKQNYVHRIGRVGRAERMGLAISLVATEKEKVWYHVCSSRGKGCYNTRLKEDGGCTIWYNEMQLLSEIEEHLNCTISQVEPDIKVPVDEFDGKVTYGQKRAAGGGSYKGHVDILAPTVQELAALEKEAQTSFLHLGYLPNQLFRTF | binds
